Measured values taken from publication PMC8910827.
These are yes or no findings as the source states them, for the method shown. In cells and extracts the contact can be indirect. Some results given as binding are weak or reduced against the parent protein; the word gives no strength.

The chains behind the UniProt entries cited, without tags or fusion partners.
UniProt P40337: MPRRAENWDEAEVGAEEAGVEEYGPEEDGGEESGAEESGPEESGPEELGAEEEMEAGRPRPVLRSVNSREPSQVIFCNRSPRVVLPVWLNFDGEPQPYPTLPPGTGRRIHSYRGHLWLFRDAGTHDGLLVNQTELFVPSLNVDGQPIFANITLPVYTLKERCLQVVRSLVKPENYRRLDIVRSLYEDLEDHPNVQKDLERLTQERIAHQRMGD
UniProt Q99497: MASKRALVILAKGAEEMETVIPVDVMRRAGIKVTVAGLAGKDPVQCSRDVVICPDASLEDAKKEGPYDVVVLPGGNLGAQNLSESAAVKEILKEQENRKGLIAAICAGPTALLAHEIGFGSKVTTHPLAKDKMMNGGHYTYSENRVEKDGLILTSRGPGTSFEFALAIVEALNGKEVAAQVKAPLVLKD

Target: von Hippel–Lindau (VHL) protein (human (endogenous in placenta)) (UniProt P40337)
Assay: co-IP; anti-VHL as pull-down antibody (4 µg) on placental lysates (400 mg total protein as printed) of SPT, IUGR and PE pregnancies (n = 3 each); immunoblot for HIF-1α, HIF-2α or DJ1

## PARK7/DJ1 (from UniProt Q99497 1-189)
  binding: binds
